From patent US4060526A, “1-Heterocyclic alkyl-1,2,3,4-tetrahydroquinazolinones and analgesic intermediates thereof” (priority 1976, dated 1977) come the findings set out here.

The LD50 is the dose expected to kill half of the subjects tested. A low value points to greater toxicity. For orientation: NOAEL means the highest dose or exposure tested at which no adverse effect was seen.

A short description of series [1]: mouse hot plate test (Eddy and Leimbach, modified). Particulars: in vivo. For orientation: Thermal pain tests record how soon the animal reacts.
Series [2] is described as follows: phenylbenzoquinone writhing test, mouse. Particulars: in vivo, po, Mouse p.o. From the text:
[…]. […] Ten animals are used at each dose level.
In general terms: An intraperitoneal irritant provokes the stretching counted in writhing tests.

A short description of series [3]: in vivo. The note with it: ip.
A short description of series [4]: in vivo. The note with it: Morphine and Codeine columns.

Regarding `CN1CC[C@]23c4c5ccc(O)c4O[C@H]2[C@@H](O)C=C[C@H]3[C@H]1C5` [Morphine, reference compound], the selectivity ratio in series [1] (ip, HNSD./ED50 H.P., Mouse i.p., HNSD = highest dose without gross symptoms) came to 4; in series [1] (ip, LD50 /ED50 H.P., Mouse i.p.), 100; in series [1] (po, HNSD./ED50 H.P., Mouse p.o., HNSD = highest dose without gross symptoms), 4; in series [1] (po, LD50 /ED50 H.P., Mouse p.o.) it was 570; in series [2] (HNSD = highest dose without gross symptoms, read-out: HNSD./ED50 Writhing), 19; in series [2] (read-out: LD50 /ED50 Writhing) it was 267. The LD50 in the series “in vivo [3]” came to 380 mg/kg. In “in vivo [3]”, this compound showed an NOAEL of 10 mg/kg. Moreover, the LD50 at 48 h in the series “in vivo [4]” (ip, Mouse i.p.) was found to be 250 mg/kg; in “in vivo [4]” (po, Mouse p.o.) it was 800 mg/kg.
